According to PMC11207949:

Target: T1, GmJAG1 (JAGGED 1, C2H2 zinc finger) (Glycine max) (UniProt M1RYC8)
T1 sequence (looked up, limits assumed): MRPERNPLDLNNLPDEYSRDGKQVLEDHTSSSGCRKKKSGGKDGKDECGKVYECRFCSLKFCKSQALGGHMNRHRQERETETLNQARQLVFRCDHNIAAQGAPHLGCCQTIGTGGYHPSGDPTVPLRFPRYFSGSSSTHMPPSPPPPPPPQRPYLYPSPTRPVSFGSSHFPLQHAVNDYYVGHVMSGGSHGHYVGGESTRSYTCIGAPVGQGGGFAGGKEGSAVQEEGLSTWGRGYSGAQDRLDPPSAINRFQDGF
Test: EMSA
Details: EMSA: 1 ug recombinant protein, 25 fmol biotin probe, 20 uL binding buffer (composition not given), room temperature, 0.5 h, LightShift Chemiluminescent EMSA kit, protein details: GST (pGEX-4T-1), label: 5' biotin

| Sequence | binding result |
| --- | --- |
| GAGTGCATGTCGCTAGCTTCACTGGCAGAACACATGCAGTG (double strand) [M2 probe] | binds |
| TTCACTGAACATGGCATCTCGCCACTTCCACTGGCGACACA (double strand) [M1 probe] | binds |

Construct, isoform or probe ends are uncertain for at least one entry. Where a protein sequence is shown, tags need not be part of it.
